Laboratory results reported in the supplement of paper PMC3334620.
Over roughly 33,000 sequences, “E-score (-0.5 to 0.5)” has its median near -8e-05; the highest 2% begin near 0.23. Some of the results follow.

Each sequence was assayed against T1, Nrg2 (UniProt P38082) (assay: PBM E-score (8-mer binding enrichment) (E-score (-0.5 to 0.5)); higher = stronger / more preferred TF binding). Conditions: protein concentration: 100 nM; construct: GST-full length.
T1 sequence: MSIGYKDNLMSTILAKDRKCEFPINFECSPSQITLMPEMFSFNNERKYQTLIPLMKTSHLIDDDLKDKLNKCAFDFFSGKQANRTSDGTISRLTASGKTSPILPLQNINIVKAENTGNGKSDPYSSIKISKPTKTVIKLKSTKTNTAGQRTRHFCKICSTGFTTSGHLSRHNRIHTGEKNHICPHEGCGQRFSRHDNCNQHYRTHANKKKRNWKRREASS
Summary of the method: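 Bound GST-tagged yeast transcription factors, applied at about 100-200 nM to double-stranded universal all-10-mer Agilent arrays, were detected with fluorescent anti-GST. Scans were normalised with masliner. A modified Wilcoxon-Mann-Whitney statistic, the E-score, was assigned to each ungapped eight-base word pooled with its reverse complement by the Universal PBM Analysis Suite.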

Sequence	PBM E-score
CTTCACGC	0.154
CTCCCGAA	-0.301
ATCCACTA	0.0691
CACAGTGC	-0.00765
AAAATGCA	-0.0417
AACTCAGA	0.0624
CCTTTCCG	-0.116
AACGTGAT	-0.1
CCGATTGA	0.118
CCATGGCG	0.186
CCAAAATC	0.095
AGACGCCC	0.0394
GCGCCACA	0.0854
AAATTTTA	-0.00026
ATGTGCCA	-0.0589
AATTACAG	-0.0292
CCTATCCC	0.107
CTTAAAGC	0.0453
CCACTGGA	-0.0983
ATCCTGAG	0.0135
ACCCATCC	-0.0966
CATTAGTA	0.112
AAGTGGGG	-0.146
GAGCAATA	-0.0524
AGCACTTC	-0.121

Sequence	PBM E-score
TCGATAGA	-0.00082
TCATCAAA	-0.0353
TCGTTAAA	-0.0308
CACATCTC	0.0719
AGGCACCA	-0.0878
AATCGATA	0.158
ACCGTTAT	-0.223
ACTCATCA	0.0607
CCTCCAAG	-0.0442
ATTAACAA	0.179
GAACACCA	-0.0853
AGAGCCCG	-0.136
AATAGTTA	0.0707
ACGCCTAC	-0.191
GAATGACC	0.00602
CCTTCCGC	-0.0644
GAGGATCC	0.0757
GTCTCGTA	-0.0651
ACACATGC	-0.0391
AATCATGC	-0.0765
CTCAAGCA	-0.0465
ATCACCTA	-0.143
TAAACAGA	0.0397
CATTCTGC	0.13
AAGTGGAG	-0.0175

Sequence	PBM E-score
AATACAAT	0.106
AACGGTGA	-0.221
ATCCGTTC	0.0535
CACGACGA	-0.0933
CAAATTAA	0.0483
ATGAGATC	0.0358
CAAAACGA	0.197
AAGCCAAC	0.0383
AATTATAG	0.193
GCGTATGA	-0.0972
AACCAATG	0.109
ATCAACAT	0.0232
CTAGCGAG	-0.111
AGGTAAGA	-0.0459
ATTTTCAC	0.0692
TGCCTCCA	-0.18
CAGCGTGC	-0.0898
CCAGTCCC	0.145
TTCGTCAA	0.0698
CCCCATGC	-0.0199
AAGAACGT	0.147
CTACTATC	0.247
CAGACCCG	0.147
ACGGGCAA	-0.0925
ATCAGTAC	0.0614

Sequence	PBM E-score
GTCTAAAC	0.102
CAATTCAG	0.112
CGATCGAC	0.0314
ATTCAATA	0.136
TAGCATGA	0.149
TATTCTAA	0.0849
TTCATCAA	0.202
AGGATAAG	-0.0907
CACCTGAG	-0.0648
CGAATATC	0.0529
GACCAGGA	0.0236
TGGGTGAA	0.152
GCGGCTAA	-0.0365
ACAGGAAT	-0.149
ACCCCTCT	-0.141
CGGCTTTC	-0.0703
AGCTAGAG	-0.0184
ACTCCTTC	-0.221
ACCGTGTG	-0.0866
GAGGTCTA	-0.0802
AATTACTC	0.177
CGCAATCC	0.0872
GTTAGGCA	-0.146
ACTGTCAG	0.118
CGTTGGCA	0.0637

Given as comma-separated lines: entries from further up.
Sequence,PBM E-score
GCGTATGA,-0.0972
AACCAATG,0.109
ATCAACAT,0.0232
CTAGCGAG,-0.111
AGGTAAGA,-0.0459
ATTTTCAC,0.0692
TGCCTCCA,-0.18
CAGCGTGC,-0.0898
CCAGTCCC,0.145
TTCGTCAA,0.0698
CCCCATGC,-0.0199
AAGAACGT,0.147
CTACTATC,0.247
CAGACCCG,0.147
ACGGGCAA,-0.0925
ATCAGTAC,0.0614
GTCTAAAC,0.102
CAATTCAG,0.112
CGATCGAC,0.0314
ATTCAATA,0.136
TAGCATGA,0.149
TATTCTAA,0.0849
TTCATCAA,0.202
AGGATAAG,-0.0907
CACCTGAG,-0.0648
CGAATATC,0.0529
GACCAGGA,0.0236
TGGGTGAA,0.152
GCGGCTAA,-0.0365
ACAGGAAT,-0.149
ACCCCTCT,-0.141
CGGCTTTC,-0.0703
AGCTAGAG,-0.0184
ACTCCTTC,-0.221
ACCGTGTG,-0.0866
GAGGTCTA,-0.0802
AATTACTC,0.177
CGCAATCC,0.0872
GTTAGGCA,-0.146

Carrying on:

Sequence	PBM E-score
AACATCGT	0.0292
CTAGAGAC	-0.218
AACTACCG	-0.135
CTCGGAAG	-0.0167
GACCTCTC	0.00025
GATAAACC	0.174
GGGGTTGA	0.0292
ACATGTGC	-0.0218
CGGGTCGA	-0.181
CCTACCGA	-0.159
AAAGGGTG	0.00635
GATGCTGC	-0.253
ACGGATTG	0.168
GCATTGCA	0.14
AAGGGCAC	-0.0552
CGGAGTCC	-0.1
CGCGGCTA	-0.0766
ACGCAACC	-0.0246
AGCTCATG	0.0635
CTCTAAAG	-0.162
ACTCATAA	0.0387
CTGACGCC	-0.043
AAAGGTAG	-0.0352
CTGCCCCC	-0.326
ACCACCTA	0.00251

Sequence	PBM E-score
ATCCCTAG	0.11
ACGCGGTC	-0.0106
CACTGAAC	0.0899
AACGAGCC	-0.02
AGCTTGCC	-0.00562
AGGACTCC	-0.295
CGCCCCAC	0.0629
AGTATATA	0.327
GCGATGGA	-0.0242
CCACTAGA	-0.196
CCGGCTAC	-0.00754
AGACTGTC	-0.193
ACGTGGAG	-0.112
CCCACGAG	0.167
CTTGCCTC	-0.0299
CCTCTTCG	0.0152
ATGCCCTA	-0.102
CCAAATAG	0.0786
CTGAAAAC	-0.109
CGGTGTAC	-0.0932
CATAAATA	0.046
GAGGTATC	-0.179
TCGAACGA	0.0281
ATACTGAC	0.146
AGAGATTA	0.0613

Sequence	PBM E-score
ACCCGACG	0.00302
GCGCCTAA	0.0597
ACTAACCA	0.0165
CATAGGAG	-0.0429
ACCAATTG	-0.0349
ATCTGCGG	0.229
CTCACAGC	0.0593
CACCGAAA	0.0473
ATCCCCAG	-0.0474
ACGCCTCC	-0.286
AGAACCGG	-0.0944
AAATCCTA	-0.0422
ACTGAAGA	0.143
AGCCGTTG	-0.0331
AGGGGGAG	-0.247
CCCGGCGC	-0.109
CCGTTGCC	-0.0649
ATCTGAAT	0.115
ACAGGGAG	-0.147
GGCTGTCA	-0.0381
AGTGCAGG	-0.0252
CCGAACTC	-0.0652
